The assay concerns the target Glucose-6-phosphate dehydrogenase (G6PD), 3×flag-tagged, overexpressed in SBC2 cells (UniProt P11413). As to the kind of experiment: co-IP; whole cell lysates of SBC2 cells with G6PD overexpression, anti-Flag antibody (mouse) or anti-IgG antibody (mouse), 12 h at 4 °C, washed three times with TBS, immunoblotting; cells with or without GSK2126458. In general terms: In western blotting, separated proteins are transferred to a membrane and probed.

Chains of the proteins cited; added tags and fusions are not shown.
UniProt P11413: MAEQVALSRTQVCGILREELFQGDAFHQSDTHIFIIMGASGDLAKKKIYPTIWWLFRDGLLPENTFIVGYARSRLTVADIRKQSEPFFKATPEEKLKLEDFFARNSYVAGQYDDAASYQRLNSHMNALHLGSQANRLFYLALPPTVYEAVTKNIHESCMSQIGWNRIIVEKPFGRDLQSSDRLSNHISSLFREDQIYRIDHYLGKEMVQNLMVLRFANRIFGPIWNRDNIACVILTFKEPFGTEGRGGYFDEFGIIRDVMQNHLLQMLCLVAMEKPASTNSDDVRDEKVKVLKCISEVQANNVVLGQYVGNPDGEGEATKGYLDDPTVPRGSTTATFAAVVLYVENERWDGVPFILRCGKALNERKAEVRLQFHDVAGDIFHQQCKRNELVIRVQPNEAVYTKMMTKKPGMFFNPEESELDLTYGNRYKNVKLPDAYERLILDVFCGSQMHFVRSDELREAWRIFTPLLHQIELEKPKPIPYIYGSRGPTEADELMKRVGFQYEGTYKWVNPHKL
UniProt P11142: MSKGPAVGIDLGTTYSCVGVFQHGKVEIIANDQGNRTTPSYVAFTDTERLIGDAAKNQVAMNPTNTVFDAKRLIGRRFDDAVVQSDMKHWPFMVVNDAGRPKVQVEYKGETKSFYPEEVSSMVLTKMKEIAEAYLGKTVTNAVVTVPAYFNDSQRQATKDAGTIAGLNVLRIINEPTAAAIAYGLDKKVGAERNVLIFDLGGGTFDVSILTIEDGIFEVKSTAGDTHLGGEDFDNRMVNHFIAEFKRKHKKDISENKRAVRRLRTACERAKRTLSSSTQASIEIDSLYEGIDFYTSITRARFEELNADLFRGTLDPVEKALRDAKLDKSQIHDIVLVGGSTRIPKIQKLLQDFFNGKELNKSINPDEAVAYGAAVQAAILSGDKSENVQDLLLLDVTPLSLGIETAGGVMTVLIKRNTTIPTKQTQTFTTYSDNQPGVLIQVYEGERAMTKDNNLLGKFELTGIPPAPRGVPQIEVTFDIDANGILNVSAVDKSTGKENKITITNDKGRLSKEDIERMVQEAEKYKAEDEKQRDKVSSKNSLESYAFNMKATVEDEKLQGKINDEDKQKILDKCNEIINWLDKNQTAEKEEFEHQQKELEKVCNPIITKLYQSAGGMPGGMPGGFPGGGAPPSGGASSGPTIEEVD

Drawing on paper PMC10558571, this text covers binding for 1 substance.

These are yes or no findings as the source states them, for the method shown. Binding seen in cells or lysates may run through a third protein. Some results given as binding are weak or reduced against the parent protein; the word gives no strength.

Consider HSPA8/HSC70 (from UniProt P11142 1-646), for which the binding entry is “binds”.
